Laboratory results reported in article doi:10.1101/2020.06.04.133611 (bioRxiv, 2020).
No constants are given. Whether binding was seen depends on the method and setting. Binding seen in cells or lysates may run through a third protein. Some results given as binding are weak or reduced against the parent protein; the word gives no strength.

Molecular target: T1, MlaA (E. coli K-12) (UniProt P76506)
T1 sequence: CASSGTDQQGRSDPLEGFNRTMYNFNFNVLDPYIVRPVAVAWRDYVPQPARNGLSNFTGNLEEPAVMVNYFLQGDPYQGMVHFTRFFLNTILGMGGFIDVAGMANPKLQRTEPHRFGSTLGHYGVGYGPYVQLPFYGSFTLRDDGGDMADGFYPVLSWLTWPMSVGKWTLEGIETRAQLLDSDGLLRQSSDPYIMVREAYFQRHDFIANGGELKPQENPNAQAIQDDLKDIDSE
Experiment: pull-down

B1: OmpF (protein, UniProt P02931 23-362)
chain: AEIYNKDGNKVDLYGKAVGLHYFSKGNGENSYGGNGDMTYARLGFKGETQINSDLTGYGQWEYNFQGNNSEGADAQTGNKTRLAFAGLKYADVGSFDYGRNYGVVYDALGYTDMLPEFGGDTAYSDDFFVGRVGGVATYRNSNFFGLVDGLNFAVQYLGKNERDTARRSNGDGVGGSISYEYEGFGIVGAYGAADRTNLQEAQPLGNGKKAEQWATGLKYDANNIYLAANYGETRNATPITNKFTNTSGFANKTQDVLLVAQYQFDFGLRPSIAYTKSKAKDVEGIGDVDLVNYFEVGATYYFNKNMSTYVDYIINQIDSDNKLGVGSDDTVAVGIVYQF
  binding: binds
